Results as given in patent US20100150834A1, “HIGH AFFINITY EPHB RECEPTOR BINDING COMPOUNDS AND METHODS OF USE THEREOF” (priority 2006, published 2010).
pIC50: −log10 of the molar value. For part of these data: At least one peptide structure holds a part that was inferred or is arguable (an end, a ring closure or a residue). For part of these data: For at least one compound, name, drawing or mass did not settle the structure. No end group written: not given here.

What follows are molecules tested on EphB1 (assay: EphB receptor specificity (% binding), Table 1). Settings: binding to EphB1.

Molecule | EphB Receptor Specificity (% Binding) B1
EWLSPNLAPSVR [compound 1] | 100%

These molecules were tested against T1, EphB2 (Homo sapiens, UniProt P29323) (assay: Inhibition of ephrin-B2 AP binding by peptides panned on EphB2 (Table 1)). Settings: read-out: Peptide IC50 (concentration of peptide required to inhibit ephrin-B2 AP binding by 50%); panning receptor EphB2.
T1 sequence (P29323 19-543 limits assumed): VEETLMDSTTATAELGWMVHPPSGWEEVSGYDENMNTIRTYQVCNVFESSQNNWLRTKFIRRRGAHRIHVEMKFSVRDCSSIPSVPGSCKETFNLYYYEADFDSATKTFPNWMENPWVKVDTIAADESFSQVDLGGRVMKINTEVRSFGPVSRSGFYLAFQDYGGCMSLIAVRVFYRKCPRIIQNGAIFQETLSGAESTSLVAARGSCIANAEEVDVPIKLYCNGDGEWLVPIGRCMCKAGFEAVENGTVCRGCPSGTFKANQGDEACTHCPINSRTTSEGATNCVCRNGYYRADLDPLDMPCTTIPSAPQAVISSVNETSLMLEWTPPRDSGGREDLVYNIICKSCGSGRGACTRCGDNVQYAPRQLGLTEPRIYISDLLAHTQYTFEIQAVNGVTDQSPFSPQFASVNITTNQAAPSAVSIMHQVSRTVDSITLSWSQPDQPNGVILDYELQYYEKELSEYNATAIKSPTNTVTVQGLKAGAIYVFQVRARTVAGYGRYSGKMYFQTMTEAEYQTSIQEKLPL

Molecule | pIC50
CC[C@H](C)[C@H](NC(=O)[C@H](C)NC(=O)[C@H](Cc1ccccc1)NC(=O)[C@@H]1CCCN1C(=O)[C@H](CCC(=O)O)NC(=O)[C@@H](NC(=O)[C@@H](NC(=O)[C@H](Cc1c[nH]c2ccccc12)NC(=O)[C@H](Cc1c[nH]cn1)NC(=O)[C@@H](N)Cc1c[nH]c2ccccc12)[C@@H](C)O)[C@@H](C)CC)C(=O)N[C@H](C(=O)N[C@@H](CO)C(=O)O)[C@@H](C)O [compound 8] | < 4.00
CC[C@H](C)[C@H](NC(=O)[C@H](CCCNC(=N)N)NC(=O)[C@H](Cc1c[nH]c2ccccc12)NC(=O)[C@H](Cc1c[nH]cn1)NC(=O)[C@@H](N)CC(=O)O)C(=O)N[C@@H](CC(C)C)C(=O)N1CCC[C@H]1C(=O)N[C@@H](Cc1ccccc1)C(=O)N[C@@H](CO)C(=O)N[C@@H](CC(C)C)C(=O)N[C@@H](CO)C(=O)N[C@@H](CO)C(=O)O [compound 10] | < 4.00
CC[C@H](C)[C@H](NC(=O)[C@@H]1CCCN1C(=O)[C@H](Cc1c[nH]c2ccccc12)NC(=O)[C@H](Cc1c[nH]cn1)NC(=O)[C@@H](N)CO)C(=O)N[C@@H](CO)C(=O)N1CCC[C@H]1C(=O)N[C@@H](Cc1ccc(O)cc1)C(=O)N[C@@H](CO)C(=O)N[C@@H](CC(C)C)C(=O)N[C@@H](CC(C)C)C(=O)N[C@@H](CO)C(=O)O [compound 14] | < 4.00

The molecules below were run against T2, EphB4 (Mus musculus, UniProt P54761) (assay: Inhibition of ephrin-B2 AP binding by peptides panned on EphB4 (Table 1)). Settings: read-out: Peptide IC50 (concentration of peptide required to inhibit ephrin-B2 AP binding by 50%); panning receptor EphB4; value of SEQ ID NO 24 obtained with the biotinylated peptide; SEQ ID NO 22 limited by solubility.
T2 sequence (P54761 16-539 limits assumed): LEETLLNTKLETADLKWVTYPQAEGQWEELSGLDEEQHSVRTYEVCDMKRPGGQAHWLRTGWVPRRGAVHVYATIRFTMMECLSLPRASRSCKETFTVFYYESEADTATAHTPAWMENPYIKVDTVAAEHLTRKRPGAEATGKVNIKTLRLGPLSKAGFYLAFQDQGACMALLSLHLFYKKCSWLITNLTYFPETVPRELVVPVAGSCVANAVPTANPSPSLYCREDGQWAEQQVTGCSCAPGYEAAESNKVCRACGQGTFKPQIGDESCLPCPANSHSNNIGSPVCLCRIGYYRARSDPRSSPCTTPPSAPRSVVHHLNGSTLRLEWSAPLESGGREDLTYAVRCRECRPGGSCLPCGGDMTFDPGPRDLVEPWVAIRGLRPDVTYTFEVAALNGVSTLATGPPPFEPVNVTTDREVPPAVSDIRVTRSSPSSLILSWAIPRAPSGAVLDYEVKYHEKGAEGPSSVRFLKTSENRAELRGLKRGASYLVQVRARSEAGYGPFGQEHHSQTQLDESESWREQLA

Molecule | pIC50
CC(C)C[C@H](NC(=O)[C@H](C)NC(=O)[C@@H](N)CC(=O)O)C(=O)N[C@@H](CC(N)=O)C(=O)N[C@@H](CC(=O)O)C(=O)N[C@@H](Cc1c[nH]c2ccccc12)C(=O)N[C@@H](CC(C)C)C(=O)N[C@@H](CC(C)C)C(=O)N[C@@H](Cc1ccccc1)C(=O)N[C@@H](CCCNC(=N)N)C(=O)N1CCC[C@H]1C(=O)N[C@@H](Cc1c[nH]c2ccccc12)C(=O)O [compound 20] | < 4.00
CC[C@H](C)[C@H](NC(=O)[C@@H](NC(=O)[C@@H]1CCCN1C(=O)[C@@H](N)CC(N)=O)C(C)C)C(=O)NCC(=O)N1CCC[C@H]1C(=O)N[C@H](C(=O)N[C@@H](CCC(N)=O)C(=O)N[C@@H](CCCNC(=N)N)C(=O)N[C@@H](C)C(=O)N[C@@H](Cc1c[nH]c2ccccc12)C(=O)N[C@H](C(=O)O)[C@@H](C)O)[C@@H](C)CC [compound 27] | < 3.30
EWYMKFPPEHYF [compound 19] | < 3.22
FSPQGPAARNFA [compound 25] | < 3.22
TYFDFQAWSIRA [compound 22] | < 4.30
